These are yes or no findings as the source states them, for the method shown. Some binding calls cover weakened binding; strength is not graded here. Sequences can lack the tags named with a protein.

Amino acid sequences for entries named in this document (tags omitted).
UniProt P00550: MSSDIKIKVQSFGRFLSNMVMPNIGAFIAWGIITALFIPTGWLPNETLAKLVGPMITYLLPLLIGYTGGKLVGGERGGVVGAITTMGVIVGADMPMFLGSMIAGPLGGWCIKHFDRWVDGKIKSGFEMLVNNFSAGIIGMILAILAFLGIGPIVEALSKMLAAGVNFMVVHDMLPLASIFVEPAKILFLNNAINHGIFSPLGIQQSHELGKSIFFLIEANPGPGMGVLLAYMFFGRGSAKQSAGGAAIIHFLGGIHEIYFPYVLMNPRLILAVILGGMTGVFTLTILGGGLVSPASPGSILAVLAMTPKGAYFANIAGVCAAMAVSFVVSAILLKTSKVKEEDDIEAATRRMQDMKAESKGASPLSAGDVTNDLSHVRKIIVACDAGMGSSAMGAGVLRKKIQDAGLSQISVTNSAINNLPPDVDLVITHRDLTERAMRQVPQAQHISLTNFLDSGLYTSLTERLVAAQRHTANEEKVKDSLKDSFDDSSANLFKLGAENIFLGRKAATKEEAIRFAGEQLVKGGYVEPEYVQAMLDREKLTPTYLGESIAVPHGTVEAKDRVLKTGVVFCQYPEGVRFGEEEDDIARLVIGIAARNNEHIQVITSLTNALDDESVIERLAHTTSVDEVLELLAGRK

T1: FruA (fructose PTS Enzyme IIC-IIB-IIB') fused to the T25 domain (pKNT25-fruA) (E. coli) (UniProt P20966)
T1 sequence: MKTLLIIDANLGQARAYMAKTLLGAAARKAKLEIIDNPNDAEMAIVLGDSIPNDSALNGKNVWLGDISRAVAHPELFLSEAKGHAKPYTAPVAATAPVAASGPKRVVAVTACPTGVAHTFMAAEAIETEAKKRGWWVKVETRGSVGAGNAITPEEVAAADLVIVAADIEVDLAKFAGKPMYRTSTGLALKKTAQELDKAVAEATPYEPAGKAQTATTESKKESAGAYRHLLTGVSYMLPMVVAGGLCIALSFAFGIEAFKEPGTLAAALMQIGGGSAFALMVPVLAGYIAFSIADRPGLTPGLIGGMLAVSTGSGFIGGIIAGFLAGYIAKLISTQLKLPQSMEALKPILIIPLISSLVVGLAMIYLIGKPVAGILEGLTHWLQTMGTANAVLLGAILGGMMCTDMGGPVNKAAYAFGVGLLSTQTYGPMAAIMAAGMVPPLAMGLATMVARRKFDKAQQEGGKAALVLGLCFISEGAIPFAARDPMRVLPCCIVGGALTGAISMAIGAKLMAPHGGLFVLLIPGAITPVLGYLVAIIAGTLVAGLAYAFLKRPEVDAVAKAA

T2: FruB (fructose PTS IIA-FPr) fused to the T18 domain (pUT18-fruB) (E. coli) (UniProt P69811)
T2 sequence: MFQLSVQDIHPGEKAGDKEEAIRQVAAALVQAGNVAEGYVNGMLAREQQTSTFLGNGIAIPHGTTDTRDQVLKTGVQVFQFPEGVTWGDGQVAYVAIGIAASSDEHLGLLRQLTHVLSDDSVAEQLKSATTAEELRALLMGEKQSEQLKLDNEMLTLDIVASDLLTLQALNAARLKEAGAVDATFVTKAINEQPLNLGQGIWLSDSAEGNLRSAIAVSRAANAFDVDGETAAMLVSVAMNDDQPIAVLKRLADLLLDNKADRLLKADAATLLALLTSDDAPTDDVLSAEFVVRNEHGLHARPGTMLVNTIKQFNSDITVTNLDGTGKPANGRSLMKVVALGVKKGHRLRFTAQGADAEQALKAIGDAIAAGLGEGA

B1: FruB (fructose PTS IIA-FPr) fused to the T18 domain (pUT18-fruB) (natural protein, E. coli, UniProt P69811 1-376, looked up)
chain: T2 sequence
B2: GatC (galactitol PTS Enzyme IIC) fused to the T18 domain (pUT18-gatC) (protein, UniProt P69831 1-451)
chain: MFSEVMRYILDLGPTVMLPIVIIIFSKILGMKAGDCFKAGLHIGIGFVGIGLVIGLMLDSIGPAAKAMAENFDLNLHVVDVGWPGSSPMTWASQIALVAIPIAILVNVAMLLTRMTRVVNVDIWNIWHMTFTGALLHLATGSWMIGMAGVVIHAAFVYKLGDWFARDTRNFFELEGIAIPHGTSAYMGPIAVLVDAIIEKIPGVNRIKFSADDIQRKFGPFGEPVTVGFVMGLIIGILAGYDVKGVLQLAVKTAAVMLLMPRVIKPIMDGLTPIAKQARSRLQAKFGGQEFLIGLDPALLLGHTAVVSASLIFIPLTILIAVCVPGNQVLPFGDLATIGFFVAMAVAVHRGNLFRTLISGVIIMSITLWIATQTIGLHTQLAANAGALKAGGMVASMDQGGSPITWLLIQVFSPQNIPGFIIIGAIYLTGIFMTWRRARGFIKQEKVVLAE
B3: NagE (N-acetylglucosamine PTS Enzyme IIC-IIB-IIA) fused to the T18 domain (pUT18-nagE) (protein, UniProt P09323 1-648)
chain: MNILGFFQRLGRALQLPIAVLPVAALLLRFGQPDLLNVAFIAQAGGAIFDNLALIFAIGVASSWSKDSAGAAALAGAVGYFVLTKAMVTINPEINMGVLAGIITGLVGGAAYNRWSDIKLPDFLSFFGGKRFVPIATGFFCLVLAAIFGYVWPPVQHAIHAGGEWIVSAGALGSGIFGFINRLLIPTGLHQVLNTIAWFQIGEFTNAAGTVFHGDINRFYAGDGTAGMFMSGFFPIMMFGLPGAALAMYFAAPKERRPMVGGMLLSVAVTAFLTGVTEPLEFLFMFLAPLLYLLHALLTGISLFVATLLGIHAGFSFSAGAIDYALMYNLPAASQNVWMLLVMGVIFFAIYFVVFSLVIRMFNLKTPGREDKEDEIVTEEANSNTEEGLTQLATNYIAAVGGTDNLKAIDACITRLRLTVADSARVNDTMCKRLGASGVVKLNKQTIQVIVGAKAESIGDAMKKVVARGPVAAASAEATPATAAPVAKPQAVPNAVSIAELVSPITGDVVALDQVPDEAFASKAVGDGVAVKPTDKIVVSPAAGTIVKIFNTNHAFCLETEKGAEIVVHMGIDTVALEGKGFKRLVEEGAQVSAGQPILEMDLDYLNANARSMISPVVCSNIDDFSGLIIKAQGHIVAGQTPLYEIKK
B4: TreB (trehalose PTS Enzyme IIB-IIC) fused to the T18 domain (pUT18-treB) (protein, UniProt P36672 1-473)
chain: MMSKINQTDIDRLIELVGGRGNIATVSHCITRLRFVLNQPANARPKEIEQLPMVKGCFTNAGQFQVVIGTNVGDYYQALIASTGQAQVDKEQVKKAARHNMKWHEQLISHFAVIFFPLLPALISGGLILGFRNVIGDLPMSNGQTLAQMYPSLQTIYDFLWLIGEAIFFYLPVGICWSAVKKMGGTPILGIVLGVTLVSPQLMNAYLLGQQLPEVWDFGMFSIAKVGYQAQVIPALLAGLALGVIETRLKRIVPDYLYLVVVPVCSLILAVFLAHALIGPFGRMIGDGVAFAVRHLMTGSFAPIGAALFGFLYAPLVITGVHQTTLAIDLQMIQSMGGTPVWPLIALSNIAQGSAVIGIIISSRKHNEREISVPAAISAWLGVTEPAMYGINLKYRFPMLCAMIGSGLAGLLCGLNGVMANGIGVGGLPGILSIQPSYWQVFALAMAIAIIIPIVLTSFIYQRKYRLGTLDIV
B5: NagE (N-acetylglucosamine PTS Enzyme IIC-IIB-IIA) fused to the T25 domain (pKNT25-nagE) (protein, UniProt P09323 1-648)
chain: B3 chain

The first assay deals with T1, FruA (fructose PTS Enzyme IIC-IIB-IIB') fused to the T25 domain (pKNT25-fruA) (E. coli). In words: two-hybrid; bacterial adenyl cyclase two-hybrid (BACTH, Euromedex EUK001); one protein fused N-terminal of T18 (pUT18), the other N-terminal of T25 (pKNT25); co-transformed into E. coli BTH101 deleted for cyaA; MacConkey agar with maltose, Kn, Ap and IPTG, 30°C up to 48 h; red colonies indicate interaction.
On to “MtlA (mannitol PTS Enzyme IIC-IIB-IIA) fused to the T18 domain (pUT18-mtlA) (from UniProt P00550 1-637)”, for which the binding entry was “binds”.
Still for that read-out and setting: the result for B1 reads “binds”; that for B2, “binds”; that for B3, “binds”.
For the molecule B4, the binding entry is “binds”.

A further assay addresses T2, FruB (fructose PTS IIA-FPr) fused to the T18 domain (pUT18-fruB) (E. coli). The description is as above.
For “MtlA (mannitol PTS Enzyme IIC-IIB-IIA) fused to the T25 domain (pKNT25-mtlA) (from UniProt P00550 1-637)”, the binding result is “binds”.
The same measure, in the same setting: the result for B5 reads “binds”.

For the origin of these results see paper PMC6872149, “Protein:Protein interactions in the cytoplasmic membrane apparently influencing sugar transport and phosphorylation activities of the e. coli phosphotransferase system” (PLoS ONE, 2019).
